Experimental data from patent US12398117B2, “Heteroarylamidopyridinol derivative and pharmaceutical composition comprising same as active ingredient for prevention or treatment of autoimmune disease” (INNOVO THERAPEUTICS INC., priority 2019, dated 2025).

Legend:
[1] = system: adhesion of intestinal epithelial cells (HT-29) and monocytic cells (U937) induced by TNF-α; experiment: Inhibition of TNF-α-induced adhesion of monocytes and intestinal epithelial cells; type: cell-based; conditions: Homo sapiens
Experimental: HT-29 human colon cancer-derived epithelial cells and U937 human-derived monocytes were cultured in RPMI 1640 medium containing 10% FBS and 1% penicillin/streptomycin (PS) in a 37° C., 5% CO2 incubator. When the cells grew more than 80% of the bottom area of the culture flask, they were passaged at a ratio of 1:3 and used in this experiment. HT-29 cells were cultured in a 24-well plate at the density of 2×10^5 cells/cm^2, and the test drug was pretreated in a medium containing 1% FBS and 1% PS for 1 hour. Thereafter, 10 μg/mL of BCECF-AM was treated thereto and reacted at 37° C. for 30 minutes. U937 cells loaded with BCECF and TNF-α (10 ng/mL) were reacted with HT-29 cells previously treated with the test drug at 37° C. for 3 hours. Upon completion of the reaction, the medium was removed, and the culture flask was washed twice with PBS to remove non-adherent U937 cells. In the next step, the cells were lysed by treating with 0.1% Triton X-100 (0.1 M Tris) and reacted at room temperature for 30 minutes. Then, fluorescence was measured and quantified using a fluostar optima microplate reader (BMG Labtechnologies, Germany) (Carvalho et al., 1996; Thapa et al., 2008).

[2] = system: adhesion of intestinal epithelial cells (HT-29) and monocytic cells (U937) induced by IL-6; experiment: Inhibition of IL-6-induced adhesion of monocytes and intestinal epithelial cells; type: cell-based; conditions: Homo sapiens; inhibition of adhesion by IL-6
Experimental: The inhibitory activity test for intestinal epithelial cell-monocyte adhesion by IL-6 was performed using the same method as in the case of TNF-α. HT-29 cells were cultured in a 24-well plate at the density of 2×10^5 cells/cm^2, and the test drug was pretreated in a medium containing 1% FBS and 1% PS for 1 hour. Thereafter, 10 μg/mL of BCECF-AM was treated thereto and reacted at 37° C. for 30 minutes. U937 cells loaded with BCECF and IL-6 (10 ng/mL) were reacted with HT-29 cells previously treated with the test drug at 37° C. for 3 hours. Upon completion of the reaction, the medium was removed, and the culture flask was washed twice with PBS to remove non-adherent U937 cells. In the next step, the cells were lysed by treating with 0.1% Triton X-100 (0.1 M Tris) and reacted at room temperature for 30 minutes. Then, fluorescence was measured and quantified using a fluostar optima microplate reader (BMG Labtechnologies, Germany).

IC50 [1]: 700 nM | IC50 [2]: 440 nM
Compound: C[C@@H]1CCN(C(=O)CC#N)C[C@@H]1N(C)c1ncnc2[nH]ccc12 [Tofacitinib, reference compound]
